Data from EP0326579B1, “IMPROVEMENT OF THE BIOCOMPATIBILITY OF SOLID SURFACES” (BIO-METRIC SYSTEMS, INC., priority 1986, dated 1988).

Assay: Radiolabeled [3H] biocompatible agents photocoupled to plastic surfaces, counted by liquid scintillation spectrometry
Source text: 1. Plastic Surfaces. Various cell factors were coupled to polymeric surfaces tested in vitro to determine the effect of these factors upon cell attachment and overgrowth. The polymeric surfaces included polyvinyl chloride (PVC), polyethylene (PE), polypropylene (PP) and polytetrafluoroethylene (PTFE) GORE-TEX (6mm reinforced expanded PTFE, a trademarked product of W. L. Gore and Associates, Inc.). Commercial tubing tested included polyester (Dacron, D, 6mm straight knitted dacron velour, a trademarked product of Dupont), silicone elastomer, (Silastic ^R, S, 0.03 I.D., tubing, a trademarked product of Dow Corning) and polyurethane. Polystyrene plates were used as controls. 2. Preparation of the Chemical Linking Moiety. The chemical linking moiety used in these examples were the N-oxysuccinimide (NOS) esters of 4-azido-2-nitrophenyl epsilon amino caproic acid (ANP-EACA), 4-azido-2-nitro-phenyl amino undecanoic acid (ANP-AUDA) and benzoylbenzoic acid (BBA). ANP-EAC-NOS and ANP-AUD-NOS were prepared by the method described in P. Guire, D. Fliger and J. Hodgson, "Photochemical Coupling of Enzymes to Mammalian Cells", Pharmacological Research Communications, Vol. 9, pp 131-141 (1977), incorporated herein by reference. Briefly, fluoro-2-nitro-4-azido benzene was reacted with either epsilon amino caproic acid or amino undecanoic acid to substitute the relatively poorly reactive fluoride with an amino alkyl carboxy group. The carboxy group was then esterified, by carbodiimide activation with N-hydroxy succinimide to yield the N-oxysuccinimide carboxylic ester. The NOS ester of benzoylbenzoic acid was prepared by esterifying the carboxy group by carbodiimide activation with N-hydroxy succinimide. When ANP-EAC-NOS or ANP-AUD-NOS is the chemical linking moiety used, the ANP group is the photochemically reactive group represented by the letter "A" in the A-X-B general formula discussed above. The NOS group is the different reactive group represented by the letter "B" in the formula. The EAC or AUD group acts as the spacer between the two reactive groups and is represented by the X in the general formula. When BBA-NOS is the chemical linking moiety, the benzoylbenzoic group is the photochemically reactive group represented by the "A" in the general formula and the NOS group is the different reactive group represented by the letter "B". The group represented by X is the carbon connecting the two reactive groups. 3. Covalent Bonding of Growth Factors to the Chemical Linking Moieties. The biocompatible agents fibronectin, laminin, collagen, endothelial growth factor, and human serum albumin were tested for their abilities to promote endothelial cell attachment and overgrowth on synthetic biomaterials. These agents were coupled to the N-oxysuccinimide (NOS) esters of 4-azido-2-nitrophenyl epsilon amino caproic acid (ANP-EACA), 4-azido-2-nitrophenyl-undecanoic amino acid (ANP-AUDA) or benzoylbenzoic acid (BBA) as follows. As used herein "photolabeled" refers to a biocompatible agent that has been coupled to a chemical linking moiety by the different reactive group and that has a photochemically reactive group. • A. Covalent Binding of Fibronectin and Laminin to the Linking Moiety. Human fibronectin (University of Wisconsin Medical School) and mouse laminin (obtained from Bethesda Research Lab.) were separately dissolved at 1 mg/ml concentrations in 0.1M borate, pH 9.0. A solution of ANP-EAC-NOS in dry dimethylformamide ("DMF"), ANP-AUD-NOS in dry DMF, or BBA-NOS in dry dioxane was slowly added to the fibronectin or laminin solution in equamolar amounts to the concentration of protein epsilon amino groups (lysine residues) by syringe drive at 4°C in the dark over 16 hours. Then the mixture was stirred 4 hours in the cold. The fibronectin or laminin solution was centrifuged to remove insoluble material then applied to a Sephadex G-75 column to remove uncoupled photoreagent. […]

## ANP-EAC-COL: Human placenta Type IV collagen coupled to ANP-EAC-NOS (photolabeled collagen)
Solid surface PVC
  % Coupling Efficiency: 14.0%
  Ng Growth Factor Photocoupled/cm²: 374 Ng/cm²
Solid surface Polyurethane
  % Coupling Efficiency: 81.26%
  Ng Growth Factor Photocoupled/cm²: 2173.6 Ng/cm²

## BBA-COL: Human placenta Type IV collagen coupled to the NOS ester of benzoylbenzoic acid
Solid surface PVC
  % Coupling Efficiency: 17.9%
  Ng Growth Factor Photocoupled/cm²: 197.56 Ng/cm²
Solid surface Polyurethane
  % Coupling Efficiency: 83.3%
  Ng Growth Factor Photocoupled/cm²: 920.3 Ng/cm²
